# Measurements published in PMC8520208.
# By UniProt entry, the sequences of proteins in these tests, tags left out.
# UniProt Q00987: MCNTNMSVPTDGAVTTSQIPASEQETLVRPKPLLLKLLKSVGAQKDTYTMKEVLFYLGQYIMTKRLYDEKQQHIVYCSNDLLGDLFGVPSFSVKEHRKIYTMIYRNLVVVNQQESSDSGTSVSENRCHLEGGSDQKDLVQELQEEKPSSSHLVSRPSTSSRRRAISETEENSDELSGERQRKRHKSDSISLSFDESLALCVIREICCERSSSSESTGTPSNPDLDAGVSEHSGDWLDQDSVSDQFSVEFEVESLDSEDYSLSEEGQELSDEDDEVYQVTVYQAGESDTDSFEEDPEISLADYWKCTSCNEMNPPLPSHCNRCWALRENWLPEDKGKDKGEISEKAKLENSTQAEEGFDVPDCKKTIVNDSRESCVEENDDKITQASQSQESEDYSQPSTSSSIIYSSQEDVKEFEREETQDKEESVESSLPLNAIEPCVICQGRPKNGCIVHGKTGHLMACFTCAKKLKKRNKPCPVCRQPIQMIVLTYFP
# Results are given in words; binding and its absence hold for the method and conditions named. Binding seen in cells or lysates may run through a third protein. Some entries that bind do so weakly or less than the wild type. Sequences can lack the tags named with a protein.
# B1: Flag-C2CD4A (C2 calcium dependent domain containing 4A), expressed in RKO cells (protein, UniProt Q8NCU7 1-369)
# chain: MWCLERLRLGPECLRRSGDWLLPGRARGAKSRTTAACANVLTPDRIPEFCIPPRLMPRLALAALRNSWVEEAGMDEGAGRTDWDPRSQAALSLPHLPRVRTAYGFCALLESPHTRRKESLLLGGPPAPRPRAHTYGGGGGPDALLGTLRVPRAPGPATPAAPGCPRPPQDALARRPRGCRLLRVPDGLLSRALRAGRSRRLTRVRSVSSGNEDKERRAGSQSPARAPSTSPPSSRVPFPERLEAEGTVALGRAGDALRLAAEYCPGTGRLRLRLLRAESPAGGAPGPRAVSCRLSLVLRPPGTALRQCSTVVGRSRKASFDQDFCFDGLSEDEVRRLAVRVKARDEGRGRERGRLLGQGELSLGALLLL
# Target: MDM2 in RKO cells (human (endogenous in RKO)) (UniProt Q00987)
# Experiment: co-IP; RKO cells with Flag-C2CD4A; co-immunoprecipitation with MDM2 (Additional file 5: Fig. S2C); antibodies not told in the text shown
binder,measurement,value
B1,binding,binds
